Assay results as given in article PMC5120349, “Reconstitution of Targeted Deadenylation by the Ccr4-Not Complex and the YTH Domain Protein Mmi1”.
No constants are given. Whether binding was seen depends on the method and setting. Binding can be weak; no strength is given. Where a sequence is shown, tags or fusion partners need not be part of it. For some assays here: In cells and extracts the contact can be indirect.

Experiments:
[1] = target: T1, Caf1 (StrepII-tagged, recombinant, S. pombe) (S. pombe) (UniProt O74856); assay: SEC-MALS; purified recombinant Ccr4-Not complex (co-expressed in Sf9); monodisperse; both purified
T1 sequence: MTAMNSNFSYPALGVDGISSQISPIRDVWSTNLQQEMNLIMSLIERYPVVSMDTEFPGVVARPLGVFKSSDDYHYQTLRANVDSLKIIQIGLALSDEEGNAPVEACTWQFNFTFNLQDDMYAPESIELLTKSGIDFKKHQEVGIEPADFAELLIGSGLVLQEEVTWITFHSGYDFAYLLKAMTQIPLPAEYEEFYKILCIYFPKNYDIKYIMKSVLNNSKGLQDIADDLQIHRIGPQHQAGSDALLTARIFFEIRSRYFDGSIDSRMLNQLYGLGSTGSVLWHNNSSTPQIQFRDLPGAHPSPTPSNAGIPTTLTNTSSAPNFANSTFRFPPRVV

[2] = target: T1, Caf1 (StrepII-tagged, recombinant, S. pombe) (S. pombe); assay: co-purification (Strep-Tactin affinity, anion exchange, size exclusion chromatography); subunits co-expressed from a single baculovirus in Sf9 cells; captured by the StrepII tag on Caf1; HEPES pH 8.0, 150 mM NaCl, 2 mM Mg(OAc)2; SDS-PAGE of the purified complex

Substance: Not4 (recombinant, S. pombe)
- binding [1]: binds
- binding [2]: binds
